According to PubChem BioAssay AID504467 (National Center for Advancing Translational Sciences (NCATS), 2011):
Out of some 330,000 compounds screened, about 7,700 (2.3%) were called active. This list was built around the results that the source calls inconclusive (neither active nor inactive); the mix of calls is not that of the screen. Calls come from the whole dose curve; as a rule, active = well fitted inhibition curve with a large enough effect; inconclusive = small, poorly fitted or top-dose-only effect, or effect the other way; inactive = flat fitted curve, though single readings scatter. Potencies of inconclusive entries are doubtful fits and often do not repeat.

Experiment: qHTS screen for small molecules that inhibit ELG1-dependent DNA repair in human embryonic kidney (HEK293T) cells expressing luciferase-tagged ELG1; note: nearly all actives have a fitted effect of over 55% in size
Conditions: HEK293T ELG1-luciferase reporter, luminescence, 16 h, DNA damage induced by 5-fluorouridine; series mostly up to 46.1 µM
Procedure, shortened: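 Step one: seed 2,000 cells per well. Step two: pin-transfer compound or DMSO alongside 5-fluorouridine. Step three: incubate 16 hr, 37 °C, 5% CO2. Step four: add ONE-Glo, wait 30 min, read luminescence.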
Potency is the fitted concentration of half-maximal effect.

| Compound | Potency |
| --- | --- |
| COc1ccc(OCC(=O)NC(=O)c2ccccc2OC)c([N+](=O)[O-])c1 | inactive |
| CCCCCCN1CC(O)=C(c2nc3ccccc3[nH]2)C1=N | inconclusive: 14.6 µM [activator, partial curve, poor fit] |
| Cc1cccc(NC(=O)c2ccc(-n3ccnc3)nc2)c1 | inactive |
| CC(=O)c1ccc(NC(=O)c2cc(CC(C)C)nc3ccccc23)cc1 | inconclusive: 12.6 µM [inhibitor, single point] |
| Oc1c(N=NC(=S)Nc2ccccc2F)c2ccccc2n1Cc1ccccc1 | active: 8.2 µM |
| CCOc1ccc(NC(=O)c2oc3ccccc3c2NC(=O)CC)cc1 | inconclusive: 3.66 µM [activator, full curve, poor fit] |
| COc1cccc(CN(C)C(=O)CNC(=O)c2ccc(-c3ccccc3)cc2)c1OC | inconclusive: 4.61 µM [inhibitor, full curve] |
| COc1ccccc1OCCCCOc1ccccc1C(C)=O | inconclusive: 25.9 µM [inhibitor, single point] |
| O=C(NCCCN1CCCC1=O)c1ccc(NS(=O)(=O)c2ccc(F)cc2)cc1 | inactive |
| COc1ccc(CNC(=O)C2CCC(CNS(=O)(=O)c3cccs3)CC2)cc1 (centres undefined) | inconclusive: 16.4 µM [inhibitor, partial curve, poor fit] |
| O=C(c1ccco1)N1CCN(C(c2ccccc2Cl)c2nnnn2Cc2cccs2)CC1 (centres undefined) | inconclusive: 18.4 µM [inhibitor, partial curve, poor fit] |
| Cc1ccc2nc(SCC(=O)Nc3cccc(S(=O)(=O)N(C)C)c3)[nH]c2c1 | inconclusive: 29.1 µM [inhibitor, single point] |
| Nc1nc(N)nc(-c2ccccc2O)n1 | inconclusive: 29.1 µM [activator, single point] |
| CCCCOC(=O)Oc1ccc2c(=O)c(Oc3cccc(C)c3)coc2c1 | inconclusive: 23.1 µM [activator, partial curve] |
| Cc1noc(C)c1C(=O)N(CC(=O)Nc1ccc(Cl)c(C(F)(F)F)c1)Cc1ccco1 | inactive |
| COc1cc(C(=O)Nc2cc(C)ccn2)ccc1OCC(=O)N1CCOCC1 | inconclusive: 20.6 µM [activator, partial curve] |
| O=[N+]([O-])c1cc(-c2n(-c3ccccn3)c3ccccc3[n+]2-c2ccccn2)ccc1Cl | active: 18.3 µM |
| CCn1c(C)nc2cc(C(=O)NNC(=S)Nc3ccccc3Cl)ccc21 | inconclusive: 18.4 µM [activator, partial curve] |
| C=CCC[C@@H](Cc1ccc(F)cc1)C(=O)OC[C@H](Cc1c[nH]c2ccccc12)NC(=O)[C@@H](CC=C)CC(=O)N[C@@H](CO)Cc1ccccc1 | inactive |

A second format for two compounds above:
Compound	Potency
Cc1ccc2nc(SCC(=O)Nc3cccc(S(=O)(=O)N(C)C)c3)[nH]c2c1	inconclusive: 29.1 µM [inhibitor, single point]
Nc1nc(N)nc(-c2ccccc2O)n1	inconclusive: 29.1 µM [activator, single point]
